# Source: the supplement of paper PMC8728848
# The list shows a part of the results.
# Tests used:
# Experiment in all cases: glycan array binding signal (z-score within array); higher = stronger binding
# Conditions in all cases: glycan notation: IUPAC condensed, linker removed
# GlcNAc(b1-3)Man = target: GlcNAc(b1-3)Man
# In short: (§1)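 Negative Z-scores can be read as non-binding. The Z-score is calculated within each array and then averaged across arrays of one protein sequence at different concentrations or buffers and across linkers. Arrays, 3228 in all, were curated from the Consortium for Functional Glycomics database and kept only where the protein sequence was available.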
# [1] = target: GlcNAc(b1-3)[GlcNAc(b1-4)][GlcNAc(b1-6)]GlcNAc
# In short: as §1
# [2] = target: GlcNAc(b1-3)[GlcNAc(b1-6)]Gal(b1-4)GlcNAc
# In short: as §1
# [3] = target: GlcNAc(b1-3)[GlcNAc(b1-6)]GalNAc
# In short: as §1
# [4] = target: GlcNAc(b1-4)Gal(b1-4)GlcNAc
# In short: as §1
# GlcNAc(b1-4)GlcNAc = target: GlcNAc(b1-4)GlcNAc
# In short: as §1
# [5] = target: GlcNAc(b1-4)GlcNAc(b1-4)GlcNAc
# In short: as §1
# [6] = target: GlcNAc(b1-4)GlcNAc(b1-4)GlcNAc(b1-4)GlcNAc(b1-4)GlcNAc
# In short: as §1
# [7] = target: GlcNAc(b1-4)GlcNAc(b1-4)GlcNAc(b1-4)GlcNAc(b1-4)GlcNAc(b1-4)GlcNAc
# In short: as §1
# [8] = target: GlcNAc(b1-4)[GlcNAc(b1-6)]GalNAc
# In short: as §1
# [9] = target: GlcNAc(b1-6)Gal(b1-4)GlcNAc
# In short: as §1
# GlcNAc(b1-6)GalNAc = target: GlcNAc(b1-6)GalNAc
# In short: as §1
# GlcNAc3Prop(b1-4)GlcNAc = target: GlcNAc3Prop(b1-4)GlcNAc
# In short: as §1
# [10] = target: GlcNAc6S(b1-3)Gal(b1-4)GlcNAc
# In short: as §1
# Kdn(a2-3)Gal(b1-3)GalNAc = target: Kdn(a2-3)Gal(b1-3)GalNAc
# In short: as §1
# Kdn(a2-3)Gal(b1-3)GlcNAc = target: Kdn(a2-3)Gal(b1-3)GlcNAc
# In short: as §1
# Kdn(a2-3)Gal(b1-4)Glc = target: Kdn(a2-3)Gal(b1-4)Glc
# In short: as §1
# Kdn(a2-3)Gal(b1-4)GlcNAc = target: Kdn(a2-3)Gal(b1-4)GlcNAc
# In short: as §1
# [11] = target: Kdn(a2-3)Gal(b1-4)[Fuc(a1-3)]GlcNAc
# In short: as §1
# Kdn(a2-6)Gal(b1-4)GlcNAc = target: Kdn(a2-6)Gal(b1-4)GlcNAc
# In short: as §1
# [12] = target: Man(a1-2)Man(a1-2)Man(a1-3)Man
# In short: as §1
# [13] = target: Man(a1-2)Man(a1-2)Man(a1-6)[Man(a1-3)]Man
# In short: as §1
# Man(a1-2)Man(a1-3)Man = target: Man(a1-2)Man(a1-3)Man
# In short: as §1
# [14] = target: Man(a1-2)Man(a1-3)[Man(a1-2)Man(a1-6)]Man
# In short: as §1
# [15] = target: Man(a1-2)Man(a1-3)[Man(a1-2)Man(a1-6)]Man(a1-6)[Man(a1-2)Man(a1-2)Man(a1-3)]Man
# In short: as §1
# [16] = target: Man(a1-2)Man(a1-3)[Man(a1-2)Man(a1-6)]Man(a1-6)[Man(a1-2)Man(a1-2)Man(a1-3)]Man(b1-4)GlcNAc(b1-4)GlcNAc
# In short: as §1
# [17] = target: Man(a1-2)Man(a1-3)[Man(a1-6)]Man(a1-6)[Man(a1-2)Man(a1-3)]Man(b1-4)GlcNAc(b1-4)GlcNAc
# In short: as §1
# [18] = target: Man(a1-2)Man(a1-6)[Man(a1-3)]Man(a1-6)[Man(a1-2)Man(a1-2)Man(a1-3)]Man
# In short: as §1
# [19] = target: Man(a1-2)Man(a1-6)[Man(a1-3)]Man(a1-6)[Man(a1-2)Man(a1-2)Man(a1-3)]Man(b1-4)GlcNAc(b1-4)GlcNAc
# In short: as §1
# Man(a1-3)[Man(a1-6)]Man = target: Man(a1-3)[Man(a1-6)]Man
# In short: as §1
# [20] = target: Man(a1-3)[Man(a1-6)]Man(a1-6)[Man(a1-2)Man(a1-3)]Man(b1-4)GlcNAc(b1-4)GlcNAc
# In short: as §1
# [21] = target: Man(a1-3)[Man(a1-6)]Man(a1-6)[Man(a1-3)]Man
# In short: as §1
# [22] = target: Man(a1-3)[Man(a1-6)]Man(a1-6)[Man(a1-3)]Man(b1-4)GlcNAc(b1-4)GlcNAc
# In short: as §1
# [23] = target: Man(a1-3)[Man(a1-6)]Man(b1-4)GlcNAc(b1-4)GlcNAc
# In short: as §1
# [24] = target: Man(a1-3)[Man(a1-6)]Man(b1-4)GlcNAc(b1-4)[Fuc(a1-6)]GlcNAc
# In short: as §1
# Man(a1-6)Man = target: Man(a1-6)Man
# In short: as §1
# Man(b1-4)GlcNAc = target: Man(b1-4)GlcNAc
# In short: as §1
# MurNAc(b1-4)GlcNAc = target: MurNAc(b1-4)GlcNAc
# In short: as §1
binder,measurement,setting,value
"Gal 12 (Homo sapiens), Q96DT0 (protein) MSQPSGGRAPGTRIYSWSCPTVMSPGEKLDPIPDSFILQPPVFHPVVPYVTTIFGGLHAGKMVMLQGVVPLDAHRFQVDFQCGCSLCPRPDIAFHFNPRFHTTKPHVICNTLHGGRWQREARWPHLALRRGSSFLILFLFGNEEVKVSVNGQHFLHFRYRLPLSHVDTLGIFGDILVEAVGFLNINPFVEGSREYPAGHPFLLMSPRLEVPCSHALPQGLSPGQVIIVRGLVLQEPKHFTVSLRDQAAHAPVTLRASFADRTLAWISRWGQKKLISAPFLFYPQRFFEVLLLFQEGGLKLALNGQGLGATSMNQQALEQLRELRISGSVQLYCVHS",glycan array binding signal (z-score),GlcNAc(b1-3)Man,-0.675
same,glycan array binding signal (z-score),[1],-0.381
same,glycan array binding signal (z-score),[2],-0.57
same,glycan array binding signal (z-score),[3],0.229
same,glycan array binding signal (z-score),[4],-0.381
same,glycan array binding signal (z-score),GlcNAc(b1-4)GlcNAc,-0.245
same,glycan array binding signal (z-score),[5],-0.755
same,glycan array binding signal (z-score),[6],-0.139
same,glycan array binding signal (z-score),[7],-0.121
same,glycan array binding signal (z-score),[8],-0.179
same,glycan array binding signal (z-score),[9],-0.449
same,glycan array binding signal (z-score),GlcNAc(b1-6)GalNAc,-0.381
same,glycan array binding signal (z-score),GlcNAc3Prop(b1-4)GlcNAc,-0.523
same,glycan array binding signal (z-score),[10],-0.81
same,glycan array binding signal (z-score),Kdn(a2-3)Gal(b1-3)GalNAc,0.39
same,glycan array binding signal (z-score),Kdn(a2-3)Gal(b1-3)GlcNAc,-0.015
same,glycan array binding signal (z-score),Kdn(a2-3)Gal(b1-4)Glc,-0.515
same,glycan array binding signal (z-score),Kdn(a2-3)Gal(b1-4)GlcNAc,0.085
same,glycan array binding signal (z-score),[11],0.163
same,glycan array binding signal (z-score),Kdn(a2-6)Gal(b1-4)GlcNAc,0.085
same,glycan array binding signal (z-score),[12],0.037
same,glycan array binding signal (z-score),[13],-0.598
same,glycan array binding signal (z-score),Man(a1-2)Man(a1-3)Man,-0.449
same,glycan array binding signal (z-score),[14],0.131
same,glycan array binding signal (z-score),[15],-0.563
same,glycan array binding signal (z-score),[16],-0.503
same,glycan array binding signal (z-score),[17],0.672
same,glycan array binding signal (z-score),[18],-0.43
same,glycan array binding signal (z-score),[19],0.431
same,glycan array binding signal (z-score),Man(a1-3)[Man(a1-6)]Man,-0.487
same,glycan array binding signal (z-score),[20],-0.406
same,glycan array binding signal (z-score),[21],0.162
same,glycan array binding signal (z-score),[22],0.058
same,glycan array binding signal (z-score),[23],-0.172
same,glycan array binding signal (z-score),[24],-0.193
same,glycan array binding signal (z-score),Man(a1-6)Man,-0.442
same,glycan array binding signal (z-score),Man(b1-4)GlcNAc,-0.114
same,glycan array binding signal (z-score),MurNAc(b1-4)GlcNAc,0.849

# 2 successive records already listed:
binder,measurement,setting,value
"Gal 12 (Homo sapiens), Q96DT0 (protein) MSQPSGGRAPGTRIYSWSCPTVMSPGEKLDPIPDSFILQPPVFHPVVPYVTTIFGGLHAGKMVMLQGVVPLDAHRFQVDFQCGCSLCPRPDIAFHFNPRFHTTKPHVICNTLHGGRWQREARWPHLALRRGSSFLILFLFGNEEVKVSVNGQHFLHFRYRLPLSHVDTLGIFGDILVEAVGFLNINPFVEGSREYPAGHPFLLMSPRLEVPCSHALPQGLSPGQVIIVRGLVLQEPKHFTVSLRDQAAHAPVTLRASFADRTLAWISRWGQKKLISAPFLFYPQRFFEVLLLFQEGGLKLALNGQGLGATSMNQQALEQLRELRISGSVQLYCVHS",glycan array binding signal (z-score),[10],-0.81
same,glycan array binding signal (z-score),Kdn(a2-3)Gal(b1-3)GalNAc,0.39
